Assay [1] has as its target Myc-VCP (valosin-containing protein) (UniProt P55072). The assay is described as follows: co-IP; exogenous reciprocal co-IP: Flag-USP11 and Myc-VCP co-transfected into HEK293T; lysate (300 ug, IP lysis buffer with protease inhibitors) with 1-2 ug anti-Flag or anti-Myc antibody at 4 °C overnight, protein A/G magnetic beads 1 h at 4 °C, immunoblot. In general terms: Immunoblotting shows a protein as a band on a membrane.

Amino acid sequences for entries named in this document (tags omitted).
UniProt P51784: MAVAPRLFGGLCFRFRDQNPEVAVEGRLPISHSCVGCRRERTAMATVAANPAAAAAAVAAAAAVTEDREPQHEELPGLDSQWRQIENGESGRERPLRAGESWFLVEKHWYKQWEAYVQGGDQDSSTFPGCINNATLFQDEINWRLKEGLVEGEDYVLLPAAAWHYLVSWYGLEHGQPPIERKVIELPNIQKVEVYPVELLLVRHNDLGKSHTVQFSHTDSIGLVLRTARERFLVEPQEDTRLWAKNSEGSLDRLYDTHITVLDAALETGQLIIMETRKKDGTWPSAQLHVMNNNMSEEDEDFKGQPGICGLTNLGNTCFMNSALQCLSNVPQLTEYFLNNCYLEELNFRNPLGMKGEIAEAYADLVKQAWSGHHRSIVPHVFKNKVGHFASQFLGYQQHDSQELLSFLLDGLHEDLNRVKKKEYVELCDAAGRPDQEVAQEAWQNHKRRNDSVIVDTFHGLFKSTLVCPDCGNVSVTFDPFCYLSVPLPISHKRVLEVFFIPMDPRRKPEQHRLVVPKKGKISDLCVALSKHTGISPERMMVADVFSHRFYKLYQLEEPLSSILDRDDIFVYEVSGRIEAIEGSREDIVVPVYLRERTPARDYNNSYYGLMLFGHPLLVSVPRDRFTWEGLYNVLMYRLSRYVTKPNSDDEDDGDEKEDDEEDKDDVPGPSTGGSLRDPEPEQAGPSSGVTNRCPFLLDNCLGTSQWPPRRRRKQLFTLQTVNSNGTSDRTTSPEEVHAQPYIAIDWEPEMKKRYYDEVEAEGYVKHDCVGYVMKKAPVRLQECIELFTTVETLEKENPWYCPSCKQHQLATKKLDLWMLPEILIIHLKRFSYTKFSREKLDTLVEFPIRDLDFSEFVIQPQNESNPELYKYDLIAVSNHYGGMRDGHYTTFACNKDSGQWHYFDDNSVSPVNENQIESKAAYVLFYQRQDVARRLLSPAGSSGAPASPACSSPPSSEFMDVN

The target of assay [2] is Flag-USP11 (ubiquitin-specific protease 11) (UniProt P51784). The description is as above.
In assay [3] the target is ubiquitin-specific protease 11 (USP11), endogenous (human (endogenous in HCT116)) (UniProt P51784). The assay is described as follows: co-IP; endogenous co-IP from HCT116 lysate with anti-USP11 or anti-VCP antibody (IgG as control), 4 °C overnight, protein A/G magnetic beads, immunoblot with anti-VCP or anti-USP11.

These are yes or no findings as the source states them, for the method shown. In cells and extracts the contact can be indirect. Some results given as binding are weak or reduced against the parent protein; the word gives no strength.

For the substance “Flag-USP11 (ubiquitin-specific protease 11) (from UniProt P51784 1-963) (enzyme)”, the binding result in assay [1] was “binds”.
“Myc-VCP (valosin-containing protein) (from UniProt P55072 1-806) (enzyme)”: the binding result in assay [2] was “binds”.
With “valosin-containing protein (VCP), endogenous (from UniProt P55072 1-806) (enzyme)”, the binding result in assay [3] is “binds”.

Source of the values: PMC7974880.
